Publication PMC3196520
No constants are given. Whether binding was seen depends on the method and setting. Binding seen in cells or lysates may run through a third protein. Some entries that bind do so weakly or less than the wild type.

Sequences of proteins named here, by UniProt entry; tags and fusion partners are left off.
UniProt O54941: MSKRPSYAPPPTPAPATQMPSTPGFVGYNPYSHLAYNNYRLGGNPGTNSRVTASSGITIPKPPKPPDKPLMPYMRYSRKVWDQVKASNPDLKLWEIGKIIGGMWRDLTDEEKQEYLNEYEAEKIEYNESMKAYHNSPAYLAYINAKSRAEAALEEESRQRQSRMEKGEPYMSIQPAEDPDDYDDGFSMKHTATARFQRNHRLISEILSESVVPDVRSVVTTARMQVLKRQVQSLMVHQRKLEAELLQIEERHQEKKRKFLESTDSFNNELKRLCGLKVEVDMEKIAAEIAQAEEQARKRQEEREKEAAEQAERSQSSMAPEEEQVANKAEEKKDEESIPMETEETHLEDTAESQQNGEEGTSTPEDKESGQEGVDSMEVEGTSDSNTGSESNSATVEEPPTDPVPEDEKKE
UniProt G5E870: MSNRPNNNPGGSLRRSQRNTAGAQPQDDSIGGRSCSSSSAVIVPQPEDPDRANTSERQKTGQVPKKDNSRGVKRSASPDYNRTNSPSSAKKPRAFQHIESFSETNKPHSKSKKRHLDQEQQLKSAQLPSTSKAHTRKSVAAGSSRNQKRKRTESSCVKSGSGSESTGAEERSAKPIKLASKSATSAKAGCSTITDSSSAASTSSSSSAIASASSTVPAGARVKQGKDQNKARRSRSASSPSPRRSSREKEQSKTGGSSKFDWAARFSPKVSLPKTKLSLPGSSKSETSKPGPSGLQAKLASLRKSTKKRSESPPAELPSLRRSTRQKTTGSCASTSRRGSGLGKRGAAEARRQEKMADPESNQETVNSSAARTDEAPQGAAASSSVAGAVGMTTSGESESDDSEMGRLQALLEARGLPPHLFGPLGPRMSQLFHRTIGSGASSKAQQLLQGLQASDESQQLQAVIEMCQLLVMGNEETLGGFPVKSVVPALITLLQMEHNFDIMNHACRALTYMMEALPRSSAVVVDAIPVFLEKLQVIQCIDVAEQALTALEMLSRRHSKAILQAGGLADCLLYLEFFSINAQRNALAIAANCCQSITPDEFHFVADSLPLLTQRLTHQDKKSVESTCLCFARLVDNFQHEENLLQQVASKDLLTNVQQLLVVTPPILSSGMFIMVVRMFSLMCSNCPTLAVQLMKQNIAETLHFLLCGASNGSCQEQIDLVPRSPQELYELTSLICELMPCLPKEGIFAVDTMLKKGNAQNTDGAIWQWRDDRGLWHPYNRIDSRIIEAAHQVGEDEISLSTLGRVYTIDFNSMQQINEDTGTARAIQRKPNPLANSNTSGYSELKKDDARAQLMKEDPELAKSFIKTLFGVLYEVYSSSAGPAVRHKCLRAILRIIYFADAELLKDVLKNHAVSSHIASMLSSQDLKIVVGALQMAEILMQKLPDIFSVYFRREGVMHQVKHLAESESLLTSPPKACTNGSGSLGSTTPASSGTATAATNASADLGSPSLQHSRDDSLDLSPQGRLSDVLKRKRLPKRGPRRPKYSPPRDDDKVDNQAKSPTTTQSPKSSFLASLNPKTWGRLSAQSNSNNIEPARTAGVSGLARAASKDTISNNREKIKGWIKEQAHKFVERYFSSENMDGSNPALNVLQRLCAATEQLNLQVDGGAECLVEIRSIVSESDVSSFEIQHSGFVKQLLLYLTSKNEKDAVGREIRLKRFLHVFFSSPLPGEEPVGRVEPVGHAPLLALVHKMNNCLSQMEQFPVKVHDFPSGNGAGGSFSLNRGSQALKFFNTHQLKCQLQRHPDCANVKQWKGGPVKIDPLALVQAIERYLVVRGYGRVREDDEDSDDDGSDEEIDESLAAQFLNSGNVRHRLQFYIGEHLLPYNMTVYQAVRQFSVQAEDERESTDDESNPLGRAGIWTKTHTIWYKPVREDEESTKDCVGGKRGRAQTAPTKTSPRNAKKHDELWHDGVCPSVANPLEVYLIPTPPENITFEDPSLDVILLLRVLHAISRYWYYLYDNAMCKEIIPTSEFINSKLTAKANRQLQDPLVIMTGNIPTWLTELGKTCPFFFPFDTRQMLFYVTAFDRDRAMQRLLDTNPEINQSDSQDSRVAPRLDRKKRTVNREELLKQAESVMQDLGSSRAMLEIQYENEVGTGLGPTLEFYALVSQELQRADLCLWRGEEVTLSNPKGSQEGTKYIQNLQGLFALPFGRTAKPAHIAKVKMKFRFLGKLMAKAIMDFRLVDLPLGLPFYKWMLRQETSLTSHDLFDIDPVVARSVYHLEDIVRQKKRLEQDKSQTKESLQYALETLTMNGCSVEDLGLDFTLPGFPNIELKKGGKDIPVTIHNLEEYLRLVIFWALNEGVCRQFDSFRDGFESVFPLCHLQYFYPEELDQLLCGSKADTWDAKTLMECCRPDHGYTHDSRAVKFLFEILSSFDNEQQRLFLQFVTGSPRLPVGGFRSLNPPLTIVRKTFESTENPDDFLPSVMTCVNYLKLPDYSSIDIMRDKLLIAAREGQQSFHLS

Target: myc-tagged BAF57 (UniProt O54941)
Experiment: co-IP; wild type or mutant Trip12 ectopically expressed with or without myc-tagged BAF57; Myc-BAF57 immunoprecipitated with anti-myc antibody, immunoblotted with anti-Trip12 or anti-myc antibody

binding: binds
Substance: Trip12, wild type, ectopically expressed (from UniProt G5E870 1-2025) (enzyme)
